# Inconclusive results, whose numbers are uncertain, are shown with a selection of clear calls. Potencies of inconclusive entries are doubtful fits and often do not repeat. Activity calls are given as the source filed them. Unless noted, calls follow the shape of the dose curve; as a rule, active = well fitted curve in the direction sought with a large enough effect; inconclusive = small, poorly fitted or top-dose-only effect, or another doubt; inactive = no such curve, though single readings can be large; an effect the other way counts as inactive or inconclusive.
# Chains of the proteins cited; added tags and fusions are not shown. Lines headed by an entry give the natural chain unless they say otherwise; changes in a name come on top.
# UniProt Q9UNA4: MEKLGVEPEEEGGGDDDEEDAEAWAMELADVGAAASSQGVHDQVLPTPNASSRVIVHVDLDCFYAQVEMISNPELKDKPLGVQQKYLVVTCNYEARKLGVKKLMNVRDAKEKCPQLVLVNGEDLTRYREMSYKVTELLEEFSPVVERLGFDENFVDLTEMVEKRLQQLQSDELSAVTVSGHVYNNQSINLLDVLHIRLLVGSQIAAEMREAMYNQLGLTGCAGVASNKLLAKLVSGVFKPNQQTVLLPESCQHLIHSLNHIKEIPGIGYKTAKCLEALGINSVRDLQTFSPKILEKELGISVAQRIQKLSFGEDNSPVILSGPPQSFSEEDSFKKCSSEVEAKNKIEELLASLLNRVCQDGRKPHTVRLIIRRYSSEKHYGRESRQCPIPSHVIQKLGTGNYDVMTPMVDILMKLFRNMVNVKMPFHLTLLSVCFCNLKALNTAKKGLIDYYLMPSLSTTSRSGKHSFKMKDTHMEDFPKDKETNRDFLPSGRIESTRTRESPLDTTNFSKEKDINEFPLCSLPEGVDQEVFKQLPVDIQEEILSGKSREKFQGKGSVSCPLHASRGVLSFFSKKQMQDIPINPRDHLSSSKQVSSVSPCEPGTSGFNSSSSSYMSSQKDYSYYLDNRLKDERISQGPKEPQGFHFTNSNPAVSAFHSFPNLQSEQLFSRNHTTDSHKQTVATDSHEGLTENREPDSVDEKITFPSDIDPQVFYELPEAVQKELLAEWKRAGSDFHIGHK
# UniProt Q9Y253: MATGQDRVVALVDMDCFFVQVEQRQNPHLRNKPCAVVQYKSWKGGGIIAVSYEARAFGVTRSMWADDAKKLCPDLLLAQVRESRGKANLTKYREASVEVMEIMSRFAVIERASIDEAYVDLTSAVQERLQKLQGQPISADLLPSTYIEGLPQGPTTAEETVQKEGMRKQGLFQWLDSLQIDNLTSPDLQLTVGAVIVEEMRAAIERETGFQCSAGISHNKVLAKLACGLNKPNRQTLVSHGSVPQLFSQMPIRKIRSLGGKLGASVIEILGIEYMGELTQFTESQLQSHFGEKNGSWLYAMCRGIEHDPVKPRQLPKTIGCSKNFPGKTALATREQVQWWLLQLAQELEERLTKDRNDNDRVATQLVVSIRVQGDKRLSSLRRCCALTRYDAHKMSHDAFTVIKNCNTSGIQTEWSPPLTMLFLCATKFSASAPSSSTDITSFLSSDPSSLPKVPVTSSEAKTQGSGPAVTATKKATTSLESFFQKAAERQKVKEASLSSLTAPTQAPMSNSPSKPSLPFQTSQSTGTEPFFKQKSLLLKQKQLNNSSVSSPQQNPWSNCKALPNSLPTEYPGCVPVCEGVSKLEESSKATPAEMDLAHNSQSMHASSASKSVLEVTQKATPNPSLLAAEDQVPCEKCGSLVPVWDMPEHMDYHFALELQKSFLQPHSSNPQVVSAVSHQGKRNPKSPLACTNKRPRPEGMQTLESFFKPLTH
# UniProt Q14191, whole entry, looked up: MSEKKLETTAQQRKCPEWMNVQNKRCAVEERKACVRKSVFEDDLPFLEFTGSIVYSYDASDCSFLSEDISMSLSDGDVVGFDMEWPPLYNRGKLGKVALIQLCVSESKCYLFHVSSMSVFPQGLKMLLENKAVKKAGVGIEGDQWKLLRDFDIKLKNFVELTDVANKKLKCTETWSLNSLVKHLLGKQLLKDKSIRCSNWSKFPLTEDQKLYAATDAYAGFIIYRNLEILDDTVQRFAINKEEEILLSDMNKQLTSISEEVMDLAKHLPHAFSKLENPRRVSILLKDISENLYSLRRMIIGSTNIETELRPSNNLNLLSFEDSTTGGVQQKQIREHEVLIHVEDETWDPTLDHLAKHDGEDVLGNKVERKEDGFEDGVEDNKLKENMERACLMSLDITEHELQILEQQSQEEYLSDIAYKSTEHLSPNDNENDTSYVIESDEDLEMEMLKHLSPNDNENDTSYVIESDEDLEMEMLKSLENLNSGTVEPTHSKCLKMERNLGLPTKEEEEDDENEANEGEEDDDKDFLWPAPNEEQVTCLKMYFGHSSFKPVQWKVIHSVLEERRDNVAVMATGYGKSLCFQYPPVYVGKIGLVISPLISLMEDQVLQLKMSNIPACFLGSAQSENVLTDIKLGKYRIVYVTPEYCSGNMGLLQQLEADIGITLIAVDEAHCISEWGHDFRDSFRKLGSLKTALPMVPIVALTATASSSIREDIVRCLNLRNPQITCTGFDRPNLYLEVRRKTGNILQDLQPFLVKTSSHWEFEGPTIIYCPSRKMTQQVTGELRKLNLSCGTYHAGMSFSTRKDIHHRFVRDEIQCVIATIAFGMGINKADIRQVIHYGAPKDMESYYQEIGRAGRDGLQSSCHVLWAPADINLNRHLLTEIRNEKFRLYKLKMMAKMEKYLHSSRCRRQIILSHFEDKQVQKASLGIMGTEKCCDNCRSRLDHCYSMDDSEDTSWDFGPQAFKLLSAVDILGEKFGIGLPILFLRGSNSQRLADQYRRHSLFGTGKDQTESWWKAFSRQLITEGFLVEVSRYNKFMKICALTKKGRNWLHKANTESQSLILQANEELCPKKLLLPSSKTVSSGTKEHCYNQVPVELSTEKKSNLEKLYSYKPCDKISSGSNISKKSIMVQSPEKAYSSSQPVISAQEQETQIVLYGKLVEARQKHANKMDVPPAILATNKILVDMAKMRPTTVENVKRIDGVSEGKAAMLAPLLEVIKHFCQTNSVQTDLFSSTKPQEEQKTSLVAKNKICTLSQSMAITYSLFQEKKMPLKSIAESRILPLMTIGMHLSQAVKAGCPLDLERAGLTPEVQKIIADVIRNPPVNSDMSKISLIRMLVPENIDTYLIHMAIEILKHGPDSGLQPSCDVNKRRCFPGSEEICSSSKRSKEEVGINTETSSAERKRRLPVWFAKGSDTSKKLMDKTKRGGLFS
# UniProt P54132: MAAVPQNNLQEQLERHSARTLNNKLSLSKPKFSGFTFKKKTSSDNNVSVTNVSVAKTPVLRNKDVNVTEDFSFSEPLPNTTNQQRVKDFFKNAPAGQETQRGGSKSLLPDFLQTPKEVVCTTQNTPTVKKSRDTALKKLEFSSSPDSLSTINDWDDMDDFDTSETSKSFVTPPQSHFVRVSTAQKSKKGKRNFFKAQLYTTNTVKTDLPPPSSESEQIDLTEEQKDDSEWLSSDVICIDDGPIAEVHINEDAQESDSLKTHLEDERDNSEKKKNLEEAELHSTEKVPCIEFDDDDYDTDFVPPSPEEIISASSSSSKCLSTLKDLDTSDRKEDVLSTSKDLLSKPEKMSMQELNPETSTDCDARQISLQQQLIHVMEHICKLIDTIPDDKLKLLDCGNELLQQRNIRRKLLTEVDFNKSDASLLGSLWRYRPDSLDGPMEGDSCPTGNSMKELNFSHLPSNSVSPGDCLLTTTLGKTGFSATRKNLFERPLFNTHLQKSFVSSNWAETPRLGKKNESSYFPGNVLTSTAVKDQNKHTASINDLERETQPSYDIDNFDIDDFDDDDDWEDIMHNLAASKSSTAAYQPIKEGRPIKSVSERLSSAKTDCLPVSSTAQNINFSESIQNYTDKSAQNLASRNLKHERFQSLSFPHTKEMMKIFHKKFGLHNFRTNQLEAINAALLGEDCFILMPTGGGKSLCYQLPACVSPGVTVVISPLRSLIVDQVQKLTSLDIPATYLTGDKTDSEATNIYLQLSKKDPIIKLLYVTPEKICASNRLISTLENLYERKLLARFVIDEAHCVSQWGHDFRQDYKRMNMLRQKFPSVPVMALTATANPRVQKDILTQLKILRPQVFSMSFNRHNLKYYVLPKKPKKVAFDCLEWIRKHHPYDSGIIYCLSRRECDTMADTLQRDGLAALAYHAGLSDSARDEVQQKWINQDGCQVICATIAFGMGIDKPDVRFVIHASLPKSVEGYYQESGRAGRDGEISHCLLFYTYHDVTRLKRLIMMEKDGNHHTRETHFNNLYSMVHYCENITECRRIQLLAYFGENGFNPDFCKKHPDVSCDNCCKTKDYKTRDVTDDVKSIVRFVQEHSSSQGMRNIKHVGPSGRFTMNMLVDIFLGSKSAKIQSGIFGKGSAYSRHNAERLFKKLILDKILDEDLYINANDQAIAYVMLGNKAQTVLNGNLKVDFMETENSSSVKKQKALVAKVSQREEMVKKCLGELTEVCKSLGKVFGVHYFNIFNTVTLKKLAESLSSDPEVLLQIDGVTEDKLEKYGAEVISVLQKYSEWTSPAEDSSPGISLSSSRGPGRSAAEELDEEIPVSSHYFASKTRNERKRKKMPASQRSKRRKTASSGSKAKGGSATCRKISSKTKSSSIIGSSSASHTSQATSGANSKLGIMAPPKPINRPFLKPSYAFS
# UniProt Q9UBT6: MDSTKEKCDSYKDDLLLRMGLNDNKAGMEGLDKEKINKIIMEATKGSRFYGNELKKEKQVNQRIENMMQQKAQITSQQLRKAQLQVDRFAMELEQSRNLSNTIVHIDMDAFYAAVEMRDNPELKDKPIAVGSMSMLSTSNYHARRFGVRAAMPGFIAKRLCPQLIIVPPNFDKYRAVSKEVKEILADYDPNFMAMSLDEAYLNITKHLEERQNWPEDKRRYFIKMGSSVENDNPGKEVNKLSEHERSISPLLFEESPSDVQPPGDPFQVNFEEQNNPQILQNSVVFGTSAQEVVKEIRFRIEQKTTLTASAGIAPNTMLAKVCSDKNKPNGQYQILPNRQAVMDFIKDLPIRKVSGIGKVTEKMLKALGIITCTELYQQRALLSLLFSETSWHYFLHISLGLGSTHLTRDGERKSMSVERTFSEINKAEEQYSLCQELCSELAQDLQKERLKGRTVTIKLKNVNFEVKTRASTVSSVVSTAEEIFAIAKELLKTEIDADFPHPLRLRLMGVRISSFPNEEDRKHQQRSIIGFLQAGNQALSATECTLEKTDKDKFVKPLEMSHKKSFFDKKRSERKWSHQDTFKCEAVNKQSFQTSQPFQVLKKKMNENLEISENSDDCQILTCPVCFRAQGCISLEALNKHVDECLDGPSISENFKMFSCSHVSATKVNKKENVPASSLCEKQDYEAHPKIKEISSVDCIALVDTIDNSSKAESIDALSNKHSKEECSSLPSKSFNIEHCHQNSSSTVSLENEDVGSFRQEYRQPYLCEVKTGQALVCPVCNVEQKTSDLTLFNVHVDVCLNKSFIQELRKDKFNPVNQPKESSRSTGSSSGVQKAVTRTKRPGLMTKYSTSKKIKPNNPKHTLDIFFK
# Key:
# [1] = target: DNA polymerase iota (Homo sapiens) (UniProt Q9UNA4); assay: qHTS for Inhibitors of Polymerase Iota: Confirmatory Assay for Cherry-picked Compounds (AID 720496); conditions: Pol iota primer extension, TAMRA/BHQ fluorescence
# Summary of the method: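 Step 1: 10 nM Pol iota with compound, 15 min, room temperature. Step 2: 50 nM final quenched DNA substrate added. Step 3: fluorescence (ex 525, em 598 nm) read at 0 and after 10 min.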
# [2] = target: DNA polymerase eta (Homo sapiens) (UniProt Q9Y253); assay: qHTS for Inhibitors of Polymerase Eta: Confirmatory Assay for Cherry-picked Compounds (AID 720502); conditions: Pol eta primer extension, TAMRA/BHQ fluorescence, 10 min
# Summary of the method: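 The reaction starts with 50 nM final labeled DNA substrate added to Pol eta (10 nM) that had sat with compound for 15 min. TAMRA emission at 598 nm is read at 0 and 10 min.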
# [3] = target: Bifunctional 3'-5' exonuclease/ATP-dependent helicase WRN (Homo sapiens) (UniProt Q14191); assay: qHTS for Inhibitors of WRN Helicase: Confirmatory Assay for Cherry-picked Compounds. (AID 720497); conditions: WRN helicase DNA unwinding, fluorescence kinetic; series mostly up to 57.1 µM; also: nearly all actives have a fitted effect of over 65% in size
# Summary of the method: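 Kinetic fluorescence unwinding readout (525/598 nm) of a forked duplex oligonucleotide substrate, 100 nM, with 2 mM ATP and 20 nM WRN. Compounds were added 15 min before substrate at room temperature. Activity was scaled between uninhibited enzyme and buffer-only controls.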
# [4] = qHTS for Inhibitors of WRN Helicase: Thiazole Orange DNA Binding Counterscreen (AID 720499); conditions: thiazole orange DNA binding displacement, fluorescence; series mostly up to 57.1 µM;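 also: drop in dye fluorescence marks compound binding to DNA; nearly all actives have a fitted effect of over 60% in size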
# Summary of the method: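 DNA-intercalating dye assay: pintool-added compounds meet 50 nM DNA pre-stained with 100 nM ThO; 15 min at RT; fluorescence 480/530 nm. Inactivity is desired.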
# [5] = target: RecQ-like DNA helicase BLM (Homo sapiens) (UniProt P54132); assay: qHTS for Inhibitors of WRN Helicase: BLM Helicase Counterscreen for WRN Inhibitors (AID 720503); conditions: Recombinant BLM helicase DNA unwinding, red fluorescence; series mostly up to 57.1 µM; also: nearly all actives have a fitted effect of over 60% in size
# Summary of the method: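 Reactions were started with 100 nM DNA substrate and 2 mM ATP (final) after compound and 1 nM BLM stood 15 min at room temperature in Tris-HCl pH 8.0 buffer with NaCl, MgCl2, DTT and Tween-20. Two red-fluorescence reads 15 min apart were normalized against DMSO and no-enzyme wells.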
# [6] = target: DNA polymerase kappa (Homo sapiens) (UniProt Q9UBT6); assay: qHTS for Inhibitors of Polymerase Kappa: Confirmatory Assay for Cherry-picked Compounds (AID 720501); conditions: purified Pol-kappa, fluorescent strand-displacement substrate
# Summary of the method: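 Strand-displacement fluorescence read-out: TAMRA reporter released from a BHQ-2-quenched template, measured at 525/598 nm over a 10 min kinetic window. Substrate was 50 nM final; enzyme was 10 nM Pol-kappa, preincubated 15 min at room temperature with compound.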
# [7] = qHTS Assay for Identification of Small Molecule Agonists for Hypoxia Response Element Signaling Pathway (AID 914; active = well fitted activation curve with a large enough effect in the signal ratio, with a control signal flat, not every such curve was filed as active; inconclusive = small, poorly fitted or top-dose-only effect, or effect the other way, or a change in a side signal; the % refers to the signal ratio); conditions: ME-180 (cervical carcinoma) HRE-bla reporter, beta-lactamase ratio, CoCl2, 17 h; activation: stronger effect = higher value
# Summary of the method: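 HRE-bla ME-180 cells, overnight plating in Opti-MEM with 0.5% dialyzed FBS; cpd titration + EC50 CoCl2, 17 h, 37 degrees Celsius; CCF4 2.5 h RT; 460/530 nm ratio; AC50.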
# Potency is read from the fitted curve at half-maximal effect.
smiles,measurement,setting,value
O=C(N/N=C/c1ccc(-c2ccccc2C(=O)O)o1)c1cccs1,Potency,[1],"inconclusive: 75.2 µM [inhibitor, partial curve]"
same,Potency,[2],active: 60.1 µM
CCN(CC)c1ccc(N=C2C=CC(=O)C=C2NC(C)=O)cc1,Potency,[3],inactive
Cc1c(Cc2ccccc2)c(=O)oc2c(O)c(O)ccc12,Potency,[3],active: 6.81 µM
Cc1ccc(-c2cc(C(=O)NCc3ccco3)c3ccccc3n2)o1,Potency,[1],"inconclusive: 75.2 µM [inhibitor, partial curve]"
same,Potency,[2],"inconclusive: 84.9 µM [inhibitor, single point]"
Cc1nnc(-c2cccc(Br)c2)c2cn(-c3cccc(Br)c3)nc12,Potency,[3],"inconclusive: 17.1 µM [inhibitor, partial curve]"
CCCCn1c(NS(=O)(=O)c2ccccc2)c(S(=O)(=O)c2ccc(C)cc2)c2nc3ccccc3nc21,Potency,[1],"inconclusive: 84.4 µM [inhibitor, single point]"
same,Potency,[2],"inconclusive: 95.3 µM [inhibitor, single point]"
CCOc1cc(/C=C2/SC(=S)N(CC3CCCO3)C2=O)ccc1O (configuration not stated),Potency,[3],"inconclusive: 17.1 µM [inhibitor, partial curve]"
COc1cccc(-c2ccc3nnc(SCC(=O)Nc4ccc(NC(C)=O)cc4)n3n2)c1,Potency,[1],"inconclusive: 42.3 µM [inhibitor, full curve]"
same,Potency,[2],"inconclusive: 67.5 µM [inhibitor, partial curve]"
COc1ccc(-c2csc(NC(=S)NC(=O)c3cccs3)n2)cc1OC,Potency,[3],"inconclusive: 21.5 µM [inhibitor, partial curve]"
same,Potency,[4],"inconclusive: 34.1 µM [inhibitor, single point]"
same,Potency,[5],"inconclusive: 19.2 µM [inhibitor, partial curve]"
CC1=NN(c2ccc(Cl)c(C(=O)O)c2)C(=O)/C1=C/c1ccc(-c2ccccc2[N+](=O)[O-])o1,Potency,[3],"inconclusive: 21.5 µM [inhibitor, partial curve]"
same,Potency,[4],inactive
same,Potency,[6],"inconclusive: 75.2 µM [inhibitor, partial curve]"
same,Potency,[5],"inconclusive: 24.1 µM [inhibitor, partial curve]"
COc1ccc(C(=O)c2cn(CC(=O)Nc3ccc4c(c3)OCCO4)c3ccc(OC)cc3c2=O)cc1,Potency,[3],active: 12.1 µM
same,Potency,[4],active: 7.64 µM
same,Potency,[6],active: 5.97 µM
same,Potency,[2],"inconclusive: 75.7 µM [inhibitor, partial curve]"
COc1ccc(C2Nc3ccccc3C(=O)N2Cc2ccco2)cc1COc1ccc(N)cc1 (configuration not stated),Potency,[3],active: 10.8 µM
same,Potency,[4],"inconclusive: 27.1 µM [inhibitor, partial curve]"
C/C(N)=C(/C#N)C(=O)CSc1nnc(Nc2cccc(C)c2)s1,Potency,[3],inactive
same,Potency,[2],"inconclusive: 84.9 µM [inhibitor, single point]"
Nc1nnc(CC(=O)N/N=C/c2ccc(-c3cccc(C(=O)O)c3)o2)s1,Potency,[3],"inconclusive: 15.2 µM [inhibitor, partial curve]"
same,Potency,[5],"inconclusive: 6.07 µM [inhibitor, full curve]"
CN(C)c1ncc(C2=C(Cl)C(=O)C(N3CCCC3)=C(Cl)C2=O)s1,Potency,[3],"inconclusive: 7.64 µM [inhibitor, partial curve]"
same,Potency,[4],"inconclusive: 24.1 µM [inhibitor, partial curve]"
N#C/C(=C\c1ccc(-c2ccc(C(=O)O)cc2)o1)c1nc2ccccc2[nH]1,Potency,[3],active: 19.2 µM
same,Potency,[4],inactive
CCOc1ccccc1-n1c(=O)c2ccccc2c2ccccc2c1=O,Potency,[3],inactive
same,Potency,[4],inactive
same,Potency,[5],inactive
Cc1c(O)ccc(/C=N/Nc2nc(-c3cccnc3)nc3ccccc23)c1O,Potency,[3],"inconclusive: 21.5 µM [inhibitor, partial curve]"
same,Potency,[4],active: 27.1 µM
same,Potency,[5],"inconclusive: 21.5 µM [inhibitor, partial curve]"
CC(O)(c1ccccc1)c1nc(-c2ccncc2)cs1 (configuration not stated),Potency,[3],"inconclusive: 30.4 µM [inhibitor, partial curve, poor fit]"
same,Potency,[4],inactive
same,Potency,[5],"inconclusive: 19.2 µM [inhibitor, partial curve]"
O=C1CC(c2ccco2)CC(O)=C1C=Nc1cc(Cl)ccc1O (configuration not stated),Potency,[7],"inconclusive: 10 µM [inhibitor, partial curve]"
same,Potency,[3],active: 21.5 µM
same,Potency,[2],active: 30.1 µM
N#CCC(=O)Nc1ccc(C(=O)OCC(=O)NNC(=O)c2ccc(Cl)cc2)cc1,Potency,[3],"inconclusive: 19.2 µM [inhibitor, partial curve]"
same,Potency,[4],active: 30.4 µM
same,Potency,[5],"inconclusive: 19.2 µM [inhibitor, partial curve]"
O=C(NCCCN1CCOCC1)c1sc2cc([N+](=O)[O-])ccc2c1Cl,Potency,[3],inactive
same,Potency,[4],inactive
same,Potency,[5],"inconclusive: 0.764 µM [inhibitor, full curve, poor fit]"
C=CCN1C(=O)/C(=C2/Sc3ccccc3N2CCCS(=O)(=O)O)SC1=S,Potency,[3],active: 21.5 µM
same,Potency,[4],inactive
O=C(O)c1ccc2nc(-c3cc4cccc(O)c4oc3=O)[nH]c2c1,Potency,[3],active: 10.8 µM
same,Potency,[4],active: 19.2 µM
Cc1nn(-c2ccccc2)c2nc(=O)n(-c3ccccc3)cc12,Potency,[3],inactive
same,Potency,[4],inactive
same,Potency,[5],inactive
O=C(Nc1nncs1)c1cc(-c2ccco2)nc2ccccc12,Potency,[3],"inconclusive: 21.5 µM [inhibitor, partial curve]"
same,Potency,[6],"inconclusive: 23.8 µM [inhibitor, full curve]"
same,Potency,[2],active: 75.7 µM
COc1ccc(-c2nc3c(c(SCC(=O)Nc4ccc(C(=O)O)cc4)n2)Cc2ccccc2O3)cc1,Potency,[3],active: 7.64 µM
same,Potency,[2],"inconclusive: 84.9 µM [inhibitor, single point]"
COc1cccc(C(=O)Nc2cccc(C(=O)NC3=NN(c4c(Cl)cc(Cl)cc4Cl)C(=O)C3)c2)c1,Potency,[3],"inconclusive: 7.64 µM [inhibitor, partial curve]"
same,Potency,[4],"inconclusive: 38.3 µM [inhibitor, single point]"
same,Potency,[5],"inconclusive: 15.2 µM [inhibitor, partial curve]"
N#C/C(=C\c1ccc(-c2ccc(C(=O)O)cc2)o1)C(=O)Nc1ccccc1C(=O)O,Potency,[3],"inconclusive: 17.1 µM [inhibitor, partial curve]"
same,Potency,[2],active: 30.1 µM
CCn1c(C)c(C2=CCN(S(=O)(=O)c3ccc(C)cc3)CC2)c2ccccc21,Potency,[3],"inconclusive: 17.1 µM [inhibitor, partial curve]"
same,Potency,[5],"inconclusive: 21.5 µM [inhibitor, partial curve]"
O=C1c2cccc(NCCCNCCO)c2C(=O)c2cccc(NCCCNCCO)c21,Potency,[3],active: 1.08 µM
same,Potency,[4],active: 0.857 µM
NC(=O)c1ccc(NC(=O)COC(=O)/C=C/c2ccc(Br)o2)cc1,Potency,[3],"inconclusive: 21.5 µM [inhibitor, partial curve]"
same,Potency,[6],"inconclusive: 67 µM [inhibitor, partial curve]"
CCCc1cc(CN2CCOCC2)c(O)c(CN2CCOCC2)c1O,Potency,[3],inactive
same,Potency,[4],inactive
same,Potency,[5],inactive
CC(C)COC(=O)c1ccc2c(c1O)C(=O)c1ccccc1C2=O,Potency,[3],"inconclusive: 19.2 µM [inhibitor, partial curve]"
same,Potency,[4],inactive
same,Potency,[5],"inconclusive: 21.5 µM [inhibitor, partial curve]"
O=C(O)COc1ccccc1/C=C1\SC(=S)N(NC(=O)c2ccccc2O)C1=O,Potency,[3],"inconclusive: 13.6 µM [inhibitor, partial curve]"
same,Potency,[2],"inconclusive: 47.8 µM [inhibitor, partial curve, poor fit]"
same,Potency,[5],inactive
O=C(O)COc1ccccc1/C=N/NC(=O)c1cc(-c2ccc(Cl)cc2)nc2ccccc12,Potency,[3],"inconclusive: 24.1 µM [inhibitor, partial curve]"
same,Potency,[4],"inconclusive: 27.1 µM [inhibitor, partial curve]"
COc1cc(C)c2sc3ccccc3c(=O)c2c1NCCN(C)C,Potency,[3],"inconclusive: 19.2 µM [inhibitor, partial curve]"
same,Potency,[4],active: 17.1 µM
same,Potency,[5],"inconclusive: 24.1 µM [inhibitor, partial curve]"
Oc1ccc(/C=N/N=C/c2ccc(O)c(O)c2)cc1O,Potency,[3],active: 0.607 µM
same,Potency,[2],active: 4.26 µM
COc1ccc(Cl)cc1-c1cc(C(=O)Nc2cc(OC)c(OC)c(OC)c2)[nH]n1,Potency,[3],"inconclusive: 27.1 µM [inhibitor, single point]"
same,Potency,[4],inactive
same,Potency,[5],active: 27.1 µM
COc1ccc(/C=N/NC(=O)c2ccccc2OC)cc1COc1ccccc1[N+](=O)[O-],Potency,[3],"inconclusive: 30.4 µM [inhibitor, single point]"
same,Potency,[4],inactive
same,Potency,[5],inactive
COc1cc(/C=N/N=C2/SCC(=O)N2c2ccc(O)cc2)ccc1O,Potency,[3],inactive
same,Potency,[5],inactive
Cc1ccc(-c2nn3cnnc3s2)cc1NC(=O)c1ccc(-c2cccc(Cl)c2)o1,Potency,[3],"inconclusive: 12.1 µM [inhibitor, partial curve]"
same,Potency,[6],"inconclusive: 16.8 µM [inhibitor, full curve]"
O=c1c(C(c2ccc(O)cc2)c2c(O)nc3n(c2=O)CCS3)c(O)nc2n1CCS2,Potency,[3],"inconclusive: 27.1 µM [inhibitor, partial curve]"
same,Potency,[2],"inconclusive: 84.9 µM [inhibitor, single point]"
same,Potency,[5],"inconclusive: 27.1 µM [inhibitor, partial curve, poor fit]"
CC1=NOC(=O)/C1=C\c1ccc(-c2cccc(Cl)c2)o1,Potency,[3],"inconclusive: 21.5 µM [inhibitor, partial curve]"
same,Potency,[2],"inconclusive: 84.9 µM [inhibitor, single point]"
Cc1cc(OCC(=O)Nc2ccc(N3CCN(C(=O)c4ccco4)CC3)cc2)cc(C)c1Cl,Potency,[3],"inconclusive: 7.64 µM [inhibitor, full curve]"
same,Potency,[2],"inconclusive: 84.9 µM [inhibitor, single point]"

# Laid out differently: entries from further up.
smiles	measurement	setting	value
COc1ccc(-c2nc3c(c(SCC(=O)Nc4ccc(C(=O)O)cc4)n2)Cc2ccccc2O3)cc1	Potency	[2]	inconclusive: 84.9 µM [inhibitor, single point]
COc1cccc(C(=O)Nc2cccc(C(=O)NC3=NN(c4c(Cl)cc(Cl)cc4Cl)C(=O)C3)c2)c1	Potency	[3]	inconclusive: 7.64 µM [inhibitor, partial curve]

# An excerpt of these results, with tabs.
smiles	measurement	setting	value
O=C(Nc1nncs1)c1cc(-c2ccco2)nc2ccccc12	Potency	[2]	active: 75.7 µM
COc1ccc(-c2nc3c(c(SCC(=O)Nc4ccc(C(=O)O)cc4)n2)Cc2ccccc2O3)cc1	Potency	[3]	active: 7.64 µM
